# Laboratory results published in the supplement of paper PMC7666118.
# Amino acid sequences for entries named in this document (tags omitted). A change or cut given only in a name is not applied to a line headed by its entry.
# UniProt P56159: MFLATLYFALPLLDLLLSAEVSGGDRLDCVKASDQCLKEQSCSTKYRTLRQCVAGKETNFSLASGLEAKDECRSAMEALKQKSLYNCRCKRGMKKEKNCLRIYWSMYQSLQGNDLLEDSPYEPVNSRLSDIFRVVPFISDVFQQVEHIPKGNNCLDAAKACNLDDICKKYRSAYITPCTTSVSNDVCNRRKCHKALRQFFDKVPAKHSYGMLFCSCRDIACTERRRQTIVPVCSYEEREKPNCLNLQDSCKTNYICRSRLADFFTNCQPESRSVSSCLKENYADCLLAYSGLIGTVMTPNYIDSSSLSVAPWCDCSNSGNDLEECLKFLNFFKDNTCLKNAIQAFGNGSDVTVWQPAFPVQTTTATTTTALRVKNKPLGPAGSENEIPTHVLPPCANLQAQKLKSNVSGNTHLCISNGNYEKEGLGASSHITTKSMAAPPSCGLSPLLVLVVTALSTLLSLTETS
# UniProt O14929: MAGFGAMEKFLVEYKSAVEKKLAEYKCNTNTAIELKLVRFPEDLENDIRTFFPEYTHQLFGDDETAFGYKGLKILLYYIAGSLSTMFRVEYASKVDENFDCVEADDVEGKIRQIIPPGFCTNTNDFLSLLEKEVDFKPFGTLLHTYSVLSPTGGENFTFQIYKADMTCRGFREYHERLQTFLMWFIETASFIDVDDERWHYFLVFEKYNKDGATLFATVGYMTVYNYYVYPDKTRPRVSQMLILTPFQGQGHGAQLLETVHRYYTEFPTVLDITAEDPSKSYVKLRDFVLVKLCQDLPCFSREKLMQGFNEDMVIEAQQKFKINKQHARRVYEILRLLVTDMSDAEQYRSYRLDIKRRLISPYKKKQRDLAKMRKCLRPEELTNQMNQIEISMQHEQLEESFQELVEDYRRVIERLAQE
# UniProt Q9H116: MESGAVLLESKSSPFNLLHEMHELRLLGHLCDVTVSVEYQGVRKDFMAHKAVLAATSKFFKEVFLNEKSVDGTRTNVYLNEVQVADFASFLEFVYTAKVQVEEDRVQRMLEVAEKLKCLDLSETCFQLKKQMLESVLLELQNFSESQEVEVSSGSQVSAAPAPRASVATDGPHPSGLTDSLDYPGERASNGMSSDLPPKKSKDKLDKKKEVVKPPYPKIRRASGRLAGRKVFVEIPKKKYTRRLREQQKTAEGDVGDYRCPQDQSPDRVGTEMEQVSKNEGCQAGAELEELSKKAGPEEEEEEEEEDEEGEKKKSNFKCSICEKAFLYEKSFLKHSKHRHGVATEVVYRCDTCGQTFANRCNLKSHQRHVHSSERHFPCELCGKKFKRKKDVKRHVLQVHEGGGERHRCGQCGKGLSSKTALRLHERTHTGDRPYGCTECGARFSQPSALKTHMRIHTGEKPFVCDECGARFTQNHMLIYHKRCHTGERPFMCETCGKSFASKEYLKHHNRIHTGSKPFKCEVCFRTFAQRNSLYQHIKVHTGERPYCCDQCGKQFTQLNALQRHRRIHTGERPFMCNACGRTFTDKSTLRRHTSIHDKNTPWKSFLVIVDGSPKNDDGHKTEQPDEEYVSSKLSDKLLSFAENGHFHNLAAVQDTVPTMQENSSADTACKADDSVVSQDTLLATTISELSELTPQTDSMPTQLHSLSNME
# UniProt Q9UKD1: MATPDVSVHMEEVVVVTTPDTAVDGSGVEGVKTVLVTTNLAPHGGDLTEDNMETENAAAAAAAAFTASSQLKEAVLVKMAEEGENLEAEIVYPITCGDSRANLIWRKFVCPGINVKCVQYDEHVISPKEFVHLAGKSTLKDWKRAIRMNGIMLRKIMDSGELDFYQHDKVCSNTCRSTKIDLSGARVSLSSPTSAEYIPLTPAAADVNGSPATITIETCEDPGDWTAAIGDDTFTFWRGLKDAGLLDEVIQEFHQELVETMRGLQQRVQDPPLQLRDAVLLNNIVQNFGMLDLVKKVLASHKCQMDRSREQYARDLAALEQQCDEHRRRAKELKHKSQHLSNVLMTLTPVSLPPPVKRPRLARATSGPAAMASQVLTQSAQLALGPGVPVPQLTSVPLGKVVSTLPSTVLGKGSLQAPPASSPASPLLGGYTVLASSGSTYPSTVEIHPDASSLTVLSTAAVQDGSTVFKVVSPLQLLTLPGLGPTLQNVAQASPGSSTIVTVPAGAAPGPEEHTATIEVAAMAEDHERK
# UniProt O75223: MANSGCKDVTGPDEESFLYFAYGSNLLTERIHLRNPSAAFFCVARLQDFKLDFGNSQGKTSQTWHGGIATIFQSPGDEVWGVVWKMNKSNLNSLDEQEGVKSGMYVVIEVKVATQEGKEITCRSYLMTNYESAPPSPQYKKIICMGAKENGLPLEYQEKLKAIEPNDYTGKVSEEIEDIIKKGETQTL
# UniProt P15104, whole entry: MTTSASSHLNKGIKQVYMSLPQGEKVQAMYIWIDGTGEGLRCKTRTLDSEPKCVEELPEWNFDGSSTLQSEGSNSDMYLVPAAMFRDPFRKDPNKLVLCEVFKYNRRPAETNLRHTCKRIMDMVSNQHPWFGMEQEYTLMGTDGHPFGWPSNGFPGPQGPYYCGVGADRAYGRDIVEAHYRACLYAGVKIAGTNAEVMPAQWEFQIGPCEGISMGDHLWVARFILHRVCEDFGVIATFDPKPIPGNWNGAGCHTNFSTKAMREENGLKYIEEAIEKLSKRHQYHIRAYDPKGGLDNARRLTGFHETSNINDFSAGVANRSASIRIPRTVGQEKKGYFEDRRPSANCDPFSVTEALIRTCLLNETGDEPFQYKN
# UniProt P06865: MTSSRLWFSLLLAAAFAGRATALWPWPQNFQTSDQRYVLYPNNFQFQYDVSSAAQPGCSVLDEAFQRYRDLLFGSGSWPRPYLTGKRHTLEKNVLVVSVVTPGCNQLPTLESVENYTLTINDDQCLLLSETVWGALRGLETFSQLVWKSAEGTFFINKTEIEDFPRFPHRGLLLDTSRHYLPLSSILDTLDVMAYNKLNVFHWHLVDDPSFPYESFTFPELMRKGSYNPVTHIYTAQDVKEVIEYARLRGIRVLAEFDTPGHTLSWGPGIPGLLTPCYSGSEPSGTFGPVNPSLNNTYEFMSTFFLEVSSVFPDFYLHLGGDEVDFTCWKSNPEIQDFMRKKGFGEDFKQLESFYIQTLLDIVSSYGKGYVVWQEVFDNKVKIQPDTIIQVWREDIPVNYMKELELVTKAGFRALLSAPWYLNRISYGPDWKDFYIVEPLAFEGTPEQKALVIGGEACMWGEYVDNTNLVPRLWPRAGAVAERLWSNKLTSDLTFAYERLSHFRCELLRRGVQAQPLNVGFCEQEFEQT
# UniProt P51570: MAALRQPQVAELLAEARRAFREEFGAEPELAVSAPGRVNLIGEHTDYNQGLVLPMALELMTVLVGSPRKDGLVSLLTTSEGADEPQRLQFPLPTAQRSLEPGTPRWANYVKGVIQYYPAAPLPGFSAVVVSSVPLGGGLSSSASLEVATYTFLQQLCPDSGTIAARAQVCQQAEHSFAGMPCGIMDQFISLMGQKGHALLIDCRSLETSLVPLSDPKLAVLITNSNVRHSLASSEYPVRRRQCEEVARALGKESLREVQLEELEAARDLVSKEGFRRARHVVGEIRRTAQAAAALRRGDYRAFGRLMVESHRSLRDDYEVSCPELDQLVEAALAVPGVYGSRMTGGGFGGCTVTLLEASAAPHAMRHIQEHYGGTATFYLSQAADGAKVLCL
# UniProt P42694: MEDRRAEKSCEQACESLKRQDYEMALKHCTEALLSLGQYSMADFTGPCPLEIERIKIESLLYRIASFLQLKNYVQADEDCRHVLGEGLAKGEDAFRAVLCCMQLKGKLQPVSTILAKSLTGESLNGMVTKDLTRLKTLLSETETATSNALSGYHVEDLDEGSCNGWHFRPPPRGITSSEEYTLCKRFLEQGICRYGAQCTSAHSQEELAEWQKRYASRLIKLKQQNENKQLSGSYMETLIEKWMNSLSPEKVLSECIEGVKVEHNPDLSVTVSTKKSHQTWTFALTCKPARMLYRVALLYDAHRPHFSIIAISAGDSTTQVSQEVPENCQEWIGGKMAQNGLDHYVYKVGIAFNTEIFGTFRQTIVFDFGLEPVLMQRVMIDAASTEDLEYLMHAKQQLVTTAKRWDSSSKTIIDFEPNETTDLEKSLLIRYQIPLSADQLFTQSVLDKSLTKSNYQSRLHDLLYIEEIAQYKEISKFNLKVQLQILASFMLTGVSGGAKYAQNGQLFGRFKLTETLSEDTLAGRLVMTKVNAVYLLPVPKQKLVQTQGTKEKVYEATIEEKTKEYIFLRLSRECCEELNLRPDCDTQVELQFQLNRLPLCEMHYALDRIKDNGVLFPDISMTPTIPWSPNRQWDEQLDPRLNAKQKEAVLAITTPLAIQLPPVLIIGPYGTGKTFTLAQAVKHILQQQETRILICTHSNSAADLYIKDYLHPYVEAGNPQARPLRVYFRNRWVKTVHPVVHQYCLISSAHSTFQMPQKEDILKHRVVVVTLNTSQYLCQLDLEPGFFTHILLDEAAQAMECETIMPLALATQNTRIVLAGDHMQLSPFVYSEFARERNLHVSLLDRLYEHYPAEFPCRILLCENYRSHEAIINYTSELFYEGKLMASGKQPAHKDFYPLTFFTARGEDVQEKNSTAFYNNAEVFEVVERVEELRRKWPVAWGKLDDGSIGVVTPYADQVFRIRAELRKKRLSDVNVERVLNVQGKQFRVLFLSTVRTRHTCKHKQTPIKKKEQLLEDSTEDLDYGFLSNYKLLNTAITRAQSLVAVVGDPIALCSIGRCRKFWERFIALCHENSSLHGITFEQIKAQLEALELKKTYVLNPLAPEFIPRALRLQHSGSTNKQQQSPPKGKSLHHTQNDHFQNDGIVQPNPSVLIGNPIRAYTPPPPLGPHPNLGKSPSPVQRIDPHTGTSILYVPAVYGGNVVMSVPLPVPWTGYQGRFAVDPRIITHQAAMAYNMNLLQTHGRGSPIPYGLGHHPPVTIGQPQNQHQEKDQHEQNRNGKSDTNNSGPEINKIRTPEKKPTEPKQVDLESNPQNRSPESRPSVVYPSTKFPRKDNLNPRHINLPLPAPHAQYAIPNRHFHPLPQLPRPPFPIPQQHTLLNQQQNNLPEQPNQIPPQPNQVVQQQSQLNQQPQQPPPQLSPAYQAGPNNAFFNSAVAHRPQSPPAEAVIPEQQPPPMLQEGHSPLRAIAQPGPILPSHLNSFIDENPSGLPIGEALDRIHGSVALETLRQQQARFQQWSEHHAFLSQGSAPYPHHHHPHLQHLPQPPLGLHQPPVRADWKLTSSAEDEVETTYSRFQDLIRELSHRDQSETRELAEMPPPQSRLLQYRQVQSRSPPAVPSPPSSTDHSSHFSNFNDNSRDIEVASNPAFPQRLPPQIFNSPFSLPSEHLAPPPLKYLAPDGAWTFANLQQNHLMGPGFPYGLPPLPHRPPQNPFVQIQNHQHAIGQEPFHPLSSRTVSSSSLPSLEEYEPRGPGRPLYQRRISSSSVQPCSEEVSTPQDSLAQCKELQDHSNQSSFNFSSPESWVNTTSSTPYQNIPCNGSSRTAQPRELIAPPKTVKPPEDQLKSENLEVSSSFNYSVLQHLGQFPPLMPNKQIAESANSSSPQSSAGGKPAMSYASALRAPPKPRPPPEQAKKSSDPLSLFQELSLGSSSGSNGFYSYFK
# UniProt Q9H9Y4: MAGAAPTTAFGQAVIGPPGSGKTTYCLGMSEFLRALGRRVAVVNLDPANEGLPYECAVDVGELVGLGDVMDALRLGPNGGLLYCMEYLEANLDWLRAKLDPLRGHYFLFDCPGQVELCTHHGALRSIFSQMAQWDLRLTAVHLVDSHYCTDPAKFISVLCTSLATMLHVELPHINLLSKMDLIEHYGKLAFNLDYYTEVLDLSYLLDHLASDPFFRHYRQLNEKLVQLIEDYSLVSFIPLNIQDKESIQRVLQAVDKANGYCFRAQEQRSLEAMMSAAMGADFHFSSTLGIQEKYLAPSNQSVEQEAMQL
# UniProt Q9UJY5: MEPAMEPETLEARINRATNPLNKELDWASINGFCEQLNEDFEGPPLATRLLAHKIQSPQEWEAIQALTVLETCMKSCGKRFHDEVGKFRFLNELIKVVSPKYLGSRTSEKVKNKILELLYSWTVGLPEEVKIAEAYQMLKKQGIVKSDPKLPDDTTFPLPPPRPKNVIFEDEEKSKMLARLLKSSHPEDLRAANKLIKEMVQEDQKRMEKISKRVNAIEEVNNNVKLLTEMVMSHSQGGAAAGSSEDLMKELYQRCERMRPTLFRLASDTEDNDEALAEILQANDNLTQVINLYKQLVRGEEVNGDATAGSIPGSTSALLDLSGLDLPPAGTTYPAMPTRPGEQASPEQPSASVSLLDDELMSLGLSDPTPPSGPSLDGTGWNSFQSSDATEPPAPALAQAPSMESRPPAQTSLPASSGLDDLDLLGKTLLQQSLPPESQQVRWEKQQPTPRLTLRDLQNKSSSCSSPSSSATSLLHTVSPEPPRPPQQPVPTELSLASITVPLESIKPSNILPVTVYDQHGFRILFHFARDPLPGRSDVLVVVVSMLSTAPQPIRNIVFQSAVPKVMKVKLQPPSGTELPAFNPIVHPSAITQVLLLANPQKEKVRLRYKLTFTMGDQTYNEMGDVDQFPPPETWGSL
# The list shows a part of the results.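 Rule for the calls: active = dose-dependent thermal stabilisation significant by F-test of dose-response against flat model at 10% FDR; inactive = not significant.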
# Compound: Nc1nc2c(ncn2[C@@H]2O[C@H](COP(=O)(O)OP(=O)(O)OP(=O)(O)O)[C@@H](O)[C@H]2O)c(=O)[nH]1
# Assay: dose-dependent thermal stabilisation call (2D-TPP, DLPTP, 10% FDR) (binary (1 = stabilised)); higher = stabilised by the compound
# Settings: system: Jurkat gel-filtered lysate; concentration range 1-500 µM
row,Target,dose-dependent thermal stabilisation call
1,GABARAPL2 (UniProt P60520),inactive: 0
2,GSPT2 (UniProt Q8IYD1),active: 1
3,GFRA1 (UniProt P56159),inactive: 0
4,HMGB3 (UniProt O15347),inactive: 0
5,HMBS (UniProt P08397),inactive: 0
6,HEXIM2 (UniProt Q96MH2),inactive: 0
7,GSK3B (UniProt P49841),active: 1
8,HNRNPA1 (UniProt P09651),inactive: 0
9,HAT1 (UniProt O14929),active: 1
10,HIP1 (UniProt O00291),inactive: 0
11,GZF1 (UniProt Q9H116),inactive: 0
12,GMEB2 (UniProt Q9UKD1),inactive: 0
13,GLRX (UniProt P35754),inactive: 0
14,GABPB1 (UniProt Q06547),inactive: 0
15,GGNBP2 (UniProt Q9H3C7),inactive: 0
16,GGCT (UniProt O75223),inactive: 0
17,HNRNPD (UniProt Q14103),inactive: 0
18,GLUL (UniProt P15104),inactive: 0

# Reprinted at random: three entries already listed, in no set order.
row,Target,dose-dependent thermal stabilisation call
9,HAT1 (UniProt O14929),active: 1
2,GSPT2 (UniProt Q8IYD1),active: 1
13,GLRX (UniProt P35754),inactive: 0

# Further records.

row,Target,dose-dependent thermal stabilisation call
1,HDAC3 (UniProt O15379),inactive: 0
2,HCFC1 (UniProt P51610),inactive: 0
3,GRWD1 (UniProt Q9BQ67),inactive: 0
4,GIMAP6 (UniProt Q6P9H5),active: 1
5,HEXA (UniProt P06865),inactive: 0
6,GALK1 (UniProt P51570),active: 1
7,HELZ (UniProt P42694),inactive: 0
8,GPN2 (UniProt Q9H9Y4),active: 1
9,GBF1 (UniProt Q92538),inactive: 0
10,HERC4 (UniProt Q5GLZ8),inactive: 0
11,HGS (UniProt O14964),inactive: 0
12,GOPC (UniProt Q9HD26),inactive: 0
13,HNRNPH1 (UniProt P31943),inactive: 0
14,HAUS7 (UniProt Q99871),inactive: 0
15,HIST1H2BJ (UniProt P06899),inactive: 0
16,HIP1R (UniProt O75146),inactive: 0
17,GGA1 (UniProt Q9UJY5),inactive: 0
18,HEBP1 (UniProt Q9NRV9),inactive: 0
